Results as given in the supplement of paper PMC7666118.
The list shows a part of the results.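 Rule for the calls: active = dose-dependent thermal stabilisation significant by F-test of dose-response against flat model at 10% FDR; inactive = not significant.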

The chains behind the UniProt entries cited, without tags or fusion partners. Where a name states a change or a piece, a line headed by the entry shows the natural chain unless it says otherwise.
UniProt Q96M27: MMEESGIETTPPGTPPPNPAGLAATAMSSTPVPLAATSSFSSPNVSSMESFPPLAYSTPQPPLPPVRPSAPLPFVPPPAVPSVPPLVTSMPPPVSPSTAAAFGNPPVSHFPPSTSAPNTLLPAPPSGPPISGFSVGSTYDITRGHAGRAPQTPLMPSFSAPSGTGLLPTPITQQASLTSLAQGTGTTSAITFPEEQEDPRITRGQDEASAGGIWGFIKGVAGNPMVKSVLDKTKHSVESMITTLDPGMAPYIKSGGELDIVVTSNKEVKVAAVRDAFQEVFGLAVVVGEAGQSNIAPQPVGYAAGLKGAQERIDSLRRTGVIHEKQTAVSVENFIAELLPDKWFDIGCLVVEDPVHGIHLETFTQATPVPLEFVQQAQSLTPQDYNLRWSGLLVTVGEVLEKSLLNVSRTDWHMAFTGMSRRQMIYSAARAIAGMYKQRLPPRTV
UniProt Q15907: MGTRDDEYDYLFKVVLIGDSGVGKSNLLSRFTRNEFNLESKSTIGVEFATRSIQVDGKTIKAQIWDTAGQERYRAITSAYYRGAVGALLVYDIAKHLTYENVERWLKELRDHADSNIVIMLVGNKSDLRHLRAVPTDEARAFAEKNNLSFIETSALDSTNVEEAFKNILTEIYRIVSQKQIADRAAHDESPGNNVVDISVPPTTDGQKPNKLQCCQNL
UniProt P07602: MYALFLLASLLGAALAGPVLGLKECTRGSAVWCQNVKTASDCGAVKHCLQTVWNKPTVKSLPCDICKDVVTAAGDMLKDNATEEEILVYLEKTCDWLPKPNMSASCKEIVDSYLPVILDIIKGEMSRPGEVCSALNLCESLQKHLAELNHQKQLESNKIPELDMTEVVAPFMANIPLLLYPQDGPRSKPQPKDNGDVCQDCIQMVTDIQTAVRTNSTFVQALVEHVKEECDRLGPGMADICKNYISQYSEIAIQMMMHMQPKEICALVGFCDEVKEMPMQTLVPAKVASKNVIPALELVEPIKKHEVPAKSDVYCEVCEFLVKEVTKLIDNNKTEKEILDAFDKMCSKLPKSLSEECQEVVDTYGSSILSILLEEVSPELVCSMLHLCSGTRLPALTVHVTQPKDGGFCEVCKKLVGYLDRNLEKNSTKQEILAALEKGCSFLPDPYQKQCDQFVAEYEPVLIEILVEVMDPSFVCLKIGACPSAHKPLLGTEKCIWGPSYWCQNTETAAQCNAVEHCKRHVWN
UniProt P35236: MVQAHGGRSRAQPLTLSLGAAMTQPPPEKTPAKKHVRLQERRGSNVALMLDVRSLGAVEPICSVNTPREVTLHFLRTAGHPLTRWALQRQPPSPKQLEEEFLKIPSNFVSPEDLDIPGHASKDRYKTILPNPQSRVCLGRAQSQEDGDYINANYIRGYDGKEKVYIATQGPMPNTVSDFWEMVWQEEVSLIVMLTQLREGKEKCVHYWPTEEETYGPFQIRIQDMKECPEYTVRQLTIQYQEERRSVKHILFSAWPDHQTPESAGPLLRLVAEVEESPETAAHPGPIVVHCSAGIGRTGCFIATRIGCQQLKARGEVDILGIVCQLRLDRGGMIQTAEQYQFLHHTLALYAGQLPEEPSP
UniProt Q8TB72: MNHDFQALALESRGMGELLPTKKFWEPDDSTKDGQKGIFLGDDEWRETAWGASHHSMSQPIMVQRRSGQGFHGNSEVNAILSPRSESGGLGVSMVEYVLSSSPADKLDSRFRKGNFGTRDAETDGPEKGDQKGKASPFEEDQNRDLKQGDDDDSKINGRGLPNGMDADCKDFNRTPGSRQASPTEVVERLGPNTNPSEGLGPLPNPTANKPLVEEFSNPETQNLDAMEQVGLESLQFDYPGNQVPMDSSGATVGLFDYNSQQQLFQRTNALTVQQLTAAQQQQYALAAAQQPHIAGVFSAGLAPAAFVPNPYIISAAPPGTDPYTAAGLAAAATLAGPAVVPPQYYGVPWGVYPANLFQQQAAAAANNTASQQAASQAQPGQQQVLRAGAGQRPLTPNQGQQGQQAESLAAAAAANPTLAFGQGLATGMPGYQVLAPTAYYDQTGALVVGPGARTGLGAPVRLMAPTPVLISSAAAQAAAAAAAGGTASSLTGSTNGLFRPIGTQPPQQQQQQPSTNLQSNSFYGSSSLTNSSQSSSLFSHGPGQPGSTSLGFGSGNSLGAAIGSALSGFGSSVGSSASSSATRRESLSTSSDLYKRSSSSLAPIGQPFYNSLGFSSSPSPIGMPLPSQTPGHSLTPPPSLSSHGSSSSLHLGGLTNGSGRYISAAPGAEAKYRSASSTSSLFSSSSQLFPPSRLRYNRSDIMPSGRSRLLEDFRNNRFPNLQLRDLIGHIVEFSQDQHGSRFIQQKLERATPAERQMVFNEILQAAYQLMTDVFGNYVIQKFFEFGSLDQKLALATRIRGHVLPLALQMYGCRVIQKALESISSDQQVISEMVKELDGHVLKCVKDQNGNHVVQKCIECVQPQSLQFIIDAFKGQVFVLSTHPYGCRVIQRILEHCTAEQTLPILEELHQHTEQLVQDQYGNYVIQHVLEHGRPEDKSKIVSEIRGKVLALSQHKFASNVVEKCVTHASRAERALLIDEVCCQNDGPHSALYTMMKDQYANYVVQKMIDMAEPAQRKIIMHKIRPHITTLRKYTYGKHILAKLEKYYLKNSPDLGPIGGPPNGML
UniProt P28074: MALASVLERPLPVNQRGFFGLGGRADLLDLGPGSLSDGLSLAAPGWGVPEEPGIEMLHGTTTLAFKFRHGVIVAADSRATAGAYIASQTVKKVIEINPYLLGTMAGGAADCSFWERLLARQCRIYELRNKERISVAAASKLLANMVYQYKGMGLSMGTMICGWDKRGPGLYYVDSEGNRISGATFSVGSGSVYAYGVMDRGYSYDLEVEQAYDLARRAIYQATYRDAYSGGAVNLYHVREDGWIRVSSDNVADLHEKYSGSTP
UniProt Q96B01: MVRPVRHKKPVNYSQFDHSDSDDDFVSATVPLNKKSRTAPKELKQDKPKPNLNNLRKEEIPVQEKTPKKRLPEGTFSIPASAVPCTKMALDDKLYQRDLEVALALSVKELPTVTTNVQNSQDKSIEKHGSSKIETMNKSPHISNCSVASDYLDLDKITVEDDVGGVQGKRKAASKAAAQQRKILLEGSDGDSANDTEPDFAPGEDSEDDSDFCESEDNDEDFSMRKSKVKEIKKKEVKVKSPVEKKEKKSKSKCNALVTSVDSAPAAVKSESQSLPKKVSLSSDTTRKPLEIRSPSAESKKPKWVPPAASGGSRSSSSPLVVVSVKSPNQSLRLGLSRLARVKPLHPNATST
UniProt P18433: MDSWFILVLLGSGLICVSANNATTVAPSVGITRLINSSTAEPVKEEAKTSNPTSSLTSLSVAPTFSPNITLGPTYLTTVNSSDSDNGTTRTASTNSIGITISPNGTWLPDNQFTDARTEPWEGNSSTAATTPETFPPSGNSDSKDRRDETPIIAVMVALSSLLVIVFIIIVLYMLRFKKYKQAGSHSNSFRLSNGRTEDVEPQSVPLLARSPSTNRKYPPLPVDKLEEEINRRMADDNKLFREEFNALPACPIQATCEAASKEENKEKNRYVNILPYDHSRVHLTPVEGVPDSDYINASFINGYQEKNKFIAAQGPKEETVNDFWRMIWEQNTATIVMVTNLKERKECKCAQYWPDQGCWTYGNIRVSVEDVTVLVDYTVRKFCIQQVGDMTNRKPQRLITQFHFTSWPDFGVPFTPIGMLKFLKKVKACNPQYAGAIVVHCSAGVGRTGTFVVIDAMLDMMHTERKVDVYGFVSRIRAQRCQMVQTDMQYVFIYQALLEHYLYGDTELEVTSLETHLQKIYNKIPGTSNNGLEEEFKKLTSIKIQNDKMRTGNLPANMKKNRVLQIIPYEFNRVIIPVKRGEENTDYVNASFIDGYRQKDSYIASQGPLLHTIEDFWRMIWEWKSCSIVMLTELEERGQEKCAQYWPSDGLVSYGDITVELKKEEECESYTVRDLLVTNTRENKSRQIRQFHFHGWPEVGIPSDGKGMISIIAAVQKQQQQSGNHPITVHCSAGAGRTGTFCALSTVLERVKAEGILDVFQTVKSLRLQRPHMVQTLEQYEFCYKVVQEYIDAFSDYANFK
UniProt Q9UL25: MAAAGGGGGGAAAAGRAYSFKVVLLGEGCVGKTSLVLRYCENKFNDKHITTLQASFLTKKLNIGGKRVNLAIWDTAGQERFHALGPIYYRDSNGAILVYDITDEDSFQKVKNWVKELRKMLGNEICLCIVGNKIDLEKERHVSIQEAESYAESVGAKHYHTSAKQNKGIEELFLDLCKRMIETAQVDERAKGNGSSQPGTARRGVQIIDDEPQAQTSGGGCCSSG
UniProt O95997: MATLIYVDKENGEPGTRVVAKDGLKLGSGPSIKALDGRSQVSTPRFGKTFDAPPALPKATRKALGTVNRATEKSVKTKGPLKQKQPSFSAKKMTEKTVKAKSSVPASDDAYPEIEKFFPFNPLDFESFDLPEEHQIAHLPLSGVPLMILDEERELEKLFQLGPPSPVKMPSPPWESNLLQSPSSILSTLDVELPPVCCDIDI
UniProt Q06609, whole entry: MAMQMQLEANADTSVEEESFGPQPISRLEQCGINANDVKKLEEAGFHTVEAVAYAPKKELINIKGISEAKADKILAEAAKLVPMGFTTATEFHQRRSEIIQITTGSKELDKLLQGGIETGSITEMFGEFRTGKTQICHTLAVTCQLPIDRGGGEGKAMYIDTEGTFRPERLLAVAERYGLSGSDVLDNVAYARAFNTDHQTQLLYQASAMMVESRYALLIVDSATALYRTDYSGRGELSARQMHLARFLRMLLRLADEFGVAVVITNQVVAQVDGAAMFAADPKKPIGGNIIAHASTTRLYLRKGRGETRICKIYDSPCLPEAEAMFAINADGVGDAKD
UniProt P52756, whole entry: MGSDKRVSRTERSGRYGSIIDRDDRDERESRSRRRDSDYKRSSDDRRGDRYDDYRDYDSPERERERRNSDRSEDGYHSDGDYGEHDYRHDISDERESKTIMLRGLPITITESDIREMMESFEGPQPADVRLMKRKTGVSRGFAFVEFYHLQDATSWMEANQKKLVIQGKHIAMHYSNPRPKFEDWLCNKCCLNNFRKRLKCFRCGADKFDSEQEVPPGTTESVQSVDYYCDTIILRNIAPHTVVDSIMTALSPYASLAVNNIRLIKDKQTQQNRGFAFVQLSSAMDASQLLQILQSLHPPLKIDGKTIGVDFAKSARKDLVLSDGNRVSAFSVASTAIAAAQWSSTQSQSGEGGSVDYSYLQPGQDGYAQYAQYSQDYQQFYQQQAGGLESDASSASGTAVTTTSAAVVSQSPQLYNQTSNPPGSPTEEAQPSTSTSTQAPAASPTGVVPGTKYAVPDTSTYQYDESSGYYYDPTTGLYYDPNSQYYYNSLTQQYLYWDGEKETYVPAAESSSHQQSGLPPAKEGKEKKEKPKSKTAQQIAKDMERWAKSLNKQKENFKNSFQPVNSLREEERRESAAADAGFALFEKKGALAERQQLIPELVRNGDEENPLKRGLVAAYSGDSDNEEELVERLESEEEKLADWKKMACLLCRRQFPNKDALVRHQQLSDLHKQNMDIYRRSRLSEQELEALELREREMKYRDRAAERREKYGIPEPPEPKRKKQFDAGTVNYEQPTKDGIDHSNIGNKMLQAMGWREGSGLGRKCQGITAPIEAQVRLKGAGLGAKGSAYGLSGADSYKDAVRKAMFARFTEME
UniProt Q7Z6K3: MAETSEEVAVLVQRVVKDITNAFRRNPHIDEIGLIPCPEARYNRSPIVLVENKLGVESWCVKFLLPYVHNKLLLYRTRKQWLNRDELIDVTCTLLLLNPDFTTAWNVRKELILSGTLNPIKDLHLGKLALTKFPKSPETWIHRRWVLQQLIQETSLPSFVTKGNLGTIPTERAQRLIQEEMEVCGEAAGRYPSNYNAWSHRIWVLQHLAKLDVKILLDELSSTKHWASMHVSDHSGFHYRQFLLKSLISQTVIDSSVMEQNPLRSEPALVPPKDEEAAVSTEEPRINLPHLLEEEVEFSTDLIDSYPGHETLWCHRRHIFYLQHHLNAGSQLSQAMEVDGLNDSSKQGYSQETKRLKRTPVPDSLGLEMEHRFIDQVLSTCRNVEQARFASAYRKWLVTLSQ
UniProt Q13131: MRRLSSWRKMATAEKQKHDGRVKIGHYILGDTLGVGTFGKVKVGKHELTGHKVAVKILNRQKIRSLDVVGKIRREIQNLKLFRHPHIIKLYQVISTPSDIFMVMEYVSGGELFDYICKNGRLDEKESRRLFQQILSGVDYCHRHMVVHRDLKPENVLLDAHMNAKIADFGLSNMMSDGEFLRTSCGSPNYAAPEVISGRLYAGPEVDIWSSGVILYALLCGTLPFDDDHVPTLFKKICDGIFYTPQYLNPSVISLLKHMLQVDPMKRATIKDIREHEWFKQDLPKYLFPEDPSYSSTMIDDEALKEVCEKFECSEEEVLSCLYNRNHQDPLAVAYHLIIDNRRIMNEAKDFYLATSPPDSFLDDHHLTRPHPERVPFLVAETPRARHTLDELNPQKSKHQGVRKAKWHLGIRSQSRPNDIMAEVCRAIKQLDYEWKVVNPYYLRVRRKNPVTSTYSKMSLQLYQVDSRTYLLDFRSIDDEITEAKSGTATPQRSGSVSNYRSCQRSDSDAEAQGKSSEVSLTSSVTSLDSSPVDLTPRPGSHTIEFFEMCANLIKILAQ

What follows are targets tested with Nc1nc2c(ncn2[C@@H]2O[C@H](COP(=O)(O)OP(=O)(O)OP(=O)(O)O)[C@@H](O)[C@H]2O)c(=O)[nH]1 (assay: dose-dependent thermal stabilisation call (2D-TPP, DLPTP, 10% FDR) (binary (1 = stabilised)); higher = stabilised by the compound). Conditions: system: Jurkat gel-filtered lysate; concentration range 1-500 µM.

| Target | dose-dependent thermal stabilisation call |
| --- | --- |
| PRRC1 (UniProt Q96M27) | inactive: 0 |
| PRKCSH (UniProt P14314) | inactive: 0 |
| RAB22A (UniProt Q9UL26) | inactive: 0 |
| RAB11B (UniProt Q15907) | active: 1 |
| PSAP (UniProt P07602) | inactive: 0 |
| PRMT3 (UniProt O60678) | inactive: 0 |
| PRKDC (UniProt P78527) | inactive: 0 |
| PTPN7 (UniProt P35236) | active: 1 |
| PUM2 (UniProt Q8TB72) | inactive: 0 |
| RAD21 (UniProt O60216) | inactive: 0 |
| RBM17 (UniProt Q96I25) | inactive: 0 |
| PSMB5 (UniProt P28074) | inactive: 0 |
| RAD51AP1 (UniProt Q96B01) | inactive: 0 |
| RAN (UniProt P62826) | inactive: 0 |
| RAP1B (UniProt P61224) | active: 1 |
| RAB3GAP2 (UniProt Q9H2M9) | inactive: 0 |
| PRPF4 (UniProt O43172) | inactive: 0 |
| PSMB10 (UniProt P40306) | inactive: 0 |

For reference, some entries already given.

| Target | dose-dependent thermal stabilisation call |
| --- | --- |
| RAD21 (UniProt O60216) | inactive: 0 |
| RBM17 (UniProt Q96I25) | inactive: 0 |

(further entries)

| Target | dose-dependent thermal stabilisation call |
| --- | --- |
| PSMD4 (UniProt P55036) | inactive: 0 |
| PYCR3 (UniProt Q53H96) | inactive: 0 |
| RBM3 (UniProt P98179) | inactive: 0 |
| PTPRA (UniProt P18433) | inactive: 0 |
| PSMC4 (UniProt P43686) | inactive: 0 |
| RAB8B (UniProt Q92930) | active: 1 |
| RAB21 (UniProt Q9UL25) | active: 1 |
| PTTG1 (UniProt O95997) | inactive: 0 |
| PTPRF (UniProt P10586) | inactive: 0 |
| RAD51 (UniProt Q06609) | active: 1 |
| PTPRE (UniProt P23469) | inactive: 0 |
| PREPL (UniProt Q4J6C6) | inactive: 0 |
| PSMB9 (UniProt P28065) | inactive: 0 |
| PTPN11 (UniProt Q06124) | inactive: 0 |
| RBM5 (UniProt P52756) | inactive: 0 |
| PTAR1 (UniProt Q7Z6K3) | active: 1 |
| PRKAA1 (UniProt Q13131) | inactive: 0 |
| PTK2 (UniProt Q05397) | inactive: 0 |
